For at least one compound, name, drawing or mass did not settle the structure.
Test system: chronic constriction nerve injury model rat
Test: Chronic constriction nerve injury model rat, mechanical allodynia by von Frey test
Type: in vivo
Settings: 30 mg/kg orally once a day for 14 days, compared with control group
Procedure: This test was performed by referring to a method of Bennett et al. (Pain, 1988, vol. 33, pp. 87-107). Compound A was used as a test substance, and celecoxib, one of NSAIDs, was used as a reference substance. The compound A was administered at a dose of 30 mg/kg (Compound A group). The celecoxib was administered at a dose of 30 mg/kg (celecoxib group). To a control group, a 0.5% methyl cellulose aqueous solution used as a vehicle was administered. Under anesthetic with Somnopentyl (manufactured by Kyoritsu Seiyaku Corporation, about 52 mg/kg, intraperitoneal administration), nerve constriction operation was performed on the left sciatic nerves of Sprague-Dawley male rats (7 weeks old). Briefly, a left femoral region of each rat was dissected, the sciatic nerve was detached from tissues around, and the nerve was loosely constricted with a 4-0 silk suture (manufactured by Eticon Inc., surgical silk) for having narrow parts in four positions at intervals of about 1 mm. The muscular layer and the skin were respectively sutured, and the operation region was disinfected. […] From the start of the administration, pain sense (mechanical allodynia) of the footpad of left hind paw was evaluated by von Frey test. […] The evaluation of the pain sense was expressed as an average of pain threshold values.

Cc1ccc(-c2cc(C(F)(F)F)nn2-c2ccc(S(N)(=O)=O)cc2)cc1 [Celecoxib, celecoxib, reference compound]
Effect on the symptom of mechanical allodynia: did not suppress the mechanical allodynia symptom

Source: patent publication US9918963B2, “Therapeutic agent for disease based on inhibitory effect of macrophage migration inhibitory factor” (TOYAMA CHEMICAL CO., LTD., priority 2013, dated 2018)
